Reference: publication doi:10.1101/2022.08.02.502465
These are yes or no findings as the source states them, for the method shown.

The chains behind the UniProt entries cited, without tags or fusion partners.
UniProt P0A988, whole entry: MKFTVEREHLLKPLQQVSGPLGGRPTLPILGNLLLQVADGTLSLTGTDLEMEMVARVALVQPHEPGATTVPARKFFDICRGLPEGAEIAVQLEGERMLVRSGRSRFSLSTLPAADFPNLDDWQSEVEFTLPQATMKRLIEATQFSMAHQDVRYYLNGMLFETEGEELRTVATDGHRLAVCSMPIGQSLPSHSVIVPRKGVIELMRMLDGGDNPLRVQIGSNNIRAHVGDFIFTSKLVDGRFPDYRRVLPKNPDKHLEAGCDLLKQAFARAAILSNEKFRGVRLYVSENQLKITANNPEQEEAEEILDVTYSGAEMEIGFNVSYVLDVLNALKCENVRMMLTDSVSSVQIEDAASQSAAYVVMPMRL
UniProt P00582, whole entry: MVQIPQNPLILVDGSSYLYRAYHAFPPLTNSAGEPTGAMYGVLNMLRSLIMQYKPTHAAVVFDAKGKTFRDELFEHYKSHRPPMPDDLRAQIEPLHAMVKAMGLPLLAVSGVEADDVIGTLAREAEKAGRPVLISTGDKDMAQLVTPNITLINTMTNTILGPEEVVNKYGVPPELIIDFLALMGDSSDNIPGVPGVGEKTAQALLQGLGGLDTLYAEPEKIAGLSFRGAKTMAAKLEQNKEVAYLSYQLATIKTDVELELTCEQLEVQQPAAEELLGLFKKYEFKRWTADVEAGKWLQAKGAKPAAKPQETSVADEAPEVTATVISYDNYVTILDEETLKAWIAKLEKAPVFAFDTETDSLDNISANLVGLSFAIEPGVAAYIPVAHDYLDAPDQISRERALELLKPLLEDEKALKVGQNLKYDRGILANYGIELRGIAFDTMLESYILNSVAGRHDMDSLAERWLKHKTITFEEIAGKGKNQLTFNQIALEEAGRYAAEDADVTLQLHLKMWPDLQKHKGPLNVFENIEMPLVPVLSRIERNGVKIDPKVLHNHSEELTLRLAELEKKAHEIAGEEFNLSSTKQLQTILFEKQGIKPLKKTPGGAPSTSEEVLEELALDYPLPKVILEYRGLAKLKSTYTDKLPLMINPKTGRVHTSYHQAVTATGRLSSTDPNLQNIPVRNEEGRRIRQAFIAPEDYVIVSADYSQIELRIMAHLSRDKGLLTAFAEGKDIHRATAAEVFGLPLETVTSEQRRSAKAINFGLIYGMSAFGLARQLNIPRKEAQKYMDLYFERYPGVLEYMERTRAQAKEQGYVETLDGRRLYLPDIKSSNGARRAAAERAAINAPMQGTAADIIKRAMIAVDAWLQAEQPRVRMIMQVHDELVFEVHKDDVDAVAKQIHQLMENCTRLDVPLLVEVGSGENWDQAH

Target: DNA sliding clamp β (E. coli) (UniProt P0A988)
Experiment: SEC

Substance: DNA polymerase I (from UniProt P00582 1-928) (enzyme)
- binding: no binding (tested: 10 μM)
